PubChem BioAssay AID1259405, NCATS, 2018
Shown is a random part of about 50,000 reagents. In the full data, about 4,000 (8%) got an active call. 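Mouse siRNA library applied to hamster cells; one well for each siRNA.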 Unmarked entries are inactive. No sequences are given here.

Screen: 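Silenced genes that increase secreted GFP made by CHO cells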 (primary screen)
System: Chinese hamster CHO-K1 ovary cells with stable secreted eGFP expression
Reagent: single siRNA against mouse genes, 0.8 pmol siRNA per well (2 µl of 400 nM stock)
Duration: 3 days
Detection: 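Percent of the per-plate non-targeting control median for intracellular GFP per well by laser scanning cytometry and for cell viability by ATP luminescence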
Direction: GFP, % of control: higher = more GFP per well, higher productivity; viability (ATP), % of control: higher = more viable cells (more ATP)
Call rule: 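Called active when intracellular GFP, relative to negative control, is at or above 120%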

With Zfp358 [SID363573652], what was measured?
GFP, % of control: 149 (active); viability (ATP), % of control: 127

What did the screen give for Zfp358 [SID363581396]?
GFP, % of control: 67.2; viability (ATP), % of control: 67.9

Which result is listed for Zfp358 [SID363583860]?
GFP, % of control: 107; viability (ATP), % of control: 124

For Mvd [SID363572878], what does the deposit list?
GFP, % of control: 55.2; viability (ATP), % of control: 74.4

Which result is listed for Mvd [SID363577454]?
GFP, % of control: 76.3; viability (ATP), % of control: 86.3

What is on record for Mvd [SID363580974]?
GFP, % of control: 34.5; viability (ATP), % of control: 66.1

For Dgkg [SID363570932], what does the deposit list?
GFP, % of control: 80.7; viability (ATP), % of control: 79.5

What did the screen give for Klra2 [SID363581780]?
GFP, % of control: 40.4; viability (ATP), % of control: 86.4

With Klra2 [SID363589274], what does the deposit list?
GFP, % of control: 98.6; viability (ATP), % of control: 78.1

For Ms4a4c [SID363544163], what does the deposit list?
GFP, % of control: 122 (active); viability (ATP), % of control: 98.3

How did the screen score Ms4a4c [SID363550491]?
GFP, % of control: 85.9; viability (ATP), % of control: 50.4

With Ms4a4c [SID363557040], what was measured?
GFP, % of control: 124 (active); viability (ATP), % of control: 119

For Or4d10c [SID363554247], how do the results read?
GFP, % of control: 50; viability (ATP), % of control: 74.1

What did the screen give for Or4d10c [SID363567694]?
GFP, % of control: 103; viability (ATP), % of control: 94.2

How did the screen score Or4d10c [SID363585051]?
GFP, % of control: 78.4; viability (ATP), % of control: 111

What did the screen give for Or5p61 [SID363544532]?
GFP, % of control: 83.2; viability (ATP), % of control: 42.3

How did the screen score Or5p61 [SID363550860]?
GFP, % of control: 89; viability (ATP), % of control: 74.4

For Or5p61 [SID363557409], what was measured?
GFP, % of control: 49.1; viability (ATP), % of control: 67.2

Taken from above:
Or4d10c [SID363554247], viability (ATP), % of control = 74.1
For “viability (ATP), % of control”, Ms4a4c [SID363557040] has 119 (active)
Value of Ms4a4c [SID363550491] under “viability (ATP), % of control”: 50.4
